Results published in publication PMC5359637.
These are yes or no findings as the source states them, for the method shown. In cells and extracts the contact can be indirect. Some results given as binding are weak or reduced against the parent protein; the word gives no strength.

Chains of the proteins cited; added tags and fusions are not shown.
UniProt Q6Y1S1: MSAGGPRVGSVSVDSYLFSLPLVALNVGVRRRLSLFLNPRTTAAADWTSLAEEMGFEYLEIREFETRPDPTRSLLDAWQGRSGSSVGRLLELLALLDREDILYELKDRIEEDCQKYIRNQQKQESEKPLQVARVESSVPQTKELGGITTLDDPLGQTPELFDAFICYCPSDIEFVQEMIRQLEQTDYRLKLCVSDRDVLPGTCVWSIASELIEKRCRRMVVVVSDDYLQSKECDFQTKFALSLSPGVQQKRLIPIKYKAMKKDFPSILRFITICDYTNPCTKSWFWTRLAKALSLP

Target: T1, TLR4 of NRK-52E cells (rat (endogenous in NRK-52E)) (UniProt Q9QX05)
T1 sequence: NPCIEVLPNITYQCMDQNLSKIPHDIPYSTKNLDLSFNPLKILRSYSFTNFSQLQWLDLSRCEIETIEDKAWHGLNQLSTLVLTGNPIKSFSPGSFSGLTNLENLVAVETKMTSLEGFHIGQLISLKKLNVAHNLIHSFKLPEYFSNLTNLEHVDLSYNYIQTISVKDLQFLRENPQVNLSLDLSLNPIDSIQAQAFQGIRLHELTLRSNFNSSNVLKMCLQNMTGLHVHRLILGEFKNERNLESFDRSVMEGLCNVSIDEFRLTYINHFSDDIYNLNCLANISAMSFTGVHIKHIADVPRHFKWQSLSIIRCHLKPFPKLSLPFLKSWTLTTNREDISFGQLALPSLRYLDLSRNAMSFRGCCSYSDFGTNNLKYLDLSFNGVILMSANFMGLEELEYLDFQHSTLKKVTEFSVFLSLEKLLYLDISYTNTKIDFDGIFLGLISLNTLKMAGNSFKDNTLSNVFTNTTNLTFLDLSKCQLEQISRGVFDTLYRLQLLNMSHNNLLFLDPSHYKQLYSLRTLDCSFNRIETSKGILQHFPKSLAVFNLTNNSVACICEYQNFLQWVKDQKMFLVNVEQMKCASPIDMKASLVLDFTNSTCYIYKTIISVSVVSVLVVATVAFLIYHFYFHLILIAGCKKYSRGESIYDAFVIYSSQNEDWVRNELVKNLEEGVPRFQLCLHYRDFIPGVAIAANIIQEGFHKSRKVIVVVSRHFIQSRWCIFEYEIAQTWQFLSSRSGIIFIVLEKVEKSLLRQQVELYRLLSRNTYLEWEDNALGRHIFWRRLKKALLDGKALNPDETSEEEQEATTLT
Experiment: co-IP; NRK-52E cells stimulated with Ang II for 30 min, with or without L6H21 pretreatment (2.5, 5, 10 uM, 1 h) or MD2 siRNA; cell extracts with anti-MD2 or anti-TLR4 antibody for 1 h, protein G-Sepharose at 4 C overnight; blot for TLR4 or MyD88

binding: binds
Substance: MyD88 of NRK-52E cells (from UniProt Q6Y1S1 1-296)
